“And” between values parts separate entries of the source, which are not always exact repeats. Equal values may be shown once. This is one part of the list. Further columns of the screen follow, without active or inactive calls. Most of these compounds were active or inconclusive in the main read-out, so they are no random draw. The note in brackets gives the kind of curve behind each potency; many fits are weak.
Assay: qHTS Assay for Lipid Storage Modulators in Drosophila S3 Cells;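 on cell number change: cells counted by Cell Tracker Red CMTPX staining in the red channel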
Details: BODIPY lipid droplet fluorescence, 18-24 h; for cell number change: measured here: cell count max response, cells fed with added oleic acid
Description: NIH Molecular Libraries Probe Production Centers Network [MLPCN] NIH Chemical Genomics Center [NCGC] MLPCN Grant: 1 R03 MH085686-01 Assay Submitter (PI): Beller, Mathias; Max-Planck-Institut fur Biophysikalische Chemie NCGC Assay Overview: Storing lipids as a reservoir for energy or the anabolism of elementary metabolites is a common feature of probably all cells and is conserved from bacteria to humans. The universal cellular lipid storage organelle is the so-called lipid storage droplet (LD). Although ubiquitous, LDs share a simple structure composed of a hydrophobic core that harbors the storage lipids, which is shielded by a droplet-specific phospholipid monolayer to which proteins are attached. The current model of LD biogenesis involves an incorporation of the lipid core into the membrane leaflets of the endoplasmic reticulum (ER) followed by a subsequent budding-like maturation of a LD, which ultimately pinches off. Once released, LD volume can increase by localized lipogenesis or fusion of existing droplet. Storage lipids are re-mobilized enzymatically by lipase activity. Lipase regulation in the adipocyte is heavily studied and involves multiple components including catecholamine signaling, the LD-associated proteins Perilipin and comparative gene identification (CGI-58) and at least two lipases named hormone sensitive lipase (HSL) and adipocyte triglyceride lipase (ATGL). LD regulation outside of the adipocyte is poorly understood and only few components are known. However, there is an urgent need to learn more about ectopic fat depots as mislocalized storage of lipids, for example in the liver or muscle, is an eminent health problem associated with insulin resistance or the metabolic syndrome. We developed a laser-scanning cytometer assay to enable 1,536-well screening and combined the results of the small molecules screen with an RNAi database based on lipid storage.
Triacsin C (Sigma-Aldrich T-4540), an inhibitor of long-chain fatty acyl CoA synthetase that blocks synthesis of triglycerides, was used as a positive control for lipid under-storage. A total of 23 nL of compound solution of different concentrations were transferred to the assay plates using a Kalypsys pin tool equipped with a 1,536-pin array containing 10-nL slotted pins (FP1S10, 0.457-mm diameter, 50.8 mm long; V&P Scientific). One microliter of oleic acid (400 uM) was added, and the plate was lidded with stainless steel rubber gasket lined lids containing pinholes. […] Fluorescence was detected by excitation of the fluorophores with a 488-nm laser on an Acumen Explorer (TTP Lab Tech). The total intensity in channel 2 (500-530 nm) reflected lipid droplet accumulation. Cells were detected using channel 3 (575-640 nm) with 5-um width and 100-um depth filters. The ratio of the number of objects in PMT channel 2 over the number of objects in PMT channel 3 was also calculated. Percent activity was computed relative to an internal control (100% inhibited lipid droplet deposition due to the presence of 20 uM Triacsin C), which was added to 32 wells/plate.

[1] = measured here: lipid fluorescence (Fed channel) AC50, cells fed with added oleic acid
[2] = measured here: cell number channel AC50, cells fed with added oleic acid

SMILES | cell number change | AC50 [1] | AC50 [2]
CC(NC(=O)C1CCCC1)c1ccc2c(c1)OCCO2 (configuration not stated) | 17.1% | 11.6 µM [rising, single point] | –
CCOC(=O)C1=NN(C(=O)c2ccc(OC)cc2)C(O)(c2ccc(Cl)cc2)C1 (configuration not stated) | 8.53% | 8.2 µM [rising, partial curve] | 3.26 µM [rising, single point]
C=CCN=C1N[C@@H](c2ccccc2)C(C(=O)OC)=C(C)N1CCOC | -10.5% and 10.4% | 7.31 µM [rising, full curve, poor fit] and 29.1 µM [rising, single point] | –
CCCCCC(=O)NC(=S)Nc1ccccc1C(=O)OC | 10.3% | 0.82 µM [falling, full curve] | 3.26 µM [rising, single point]
C=CCN(C(=O)C1CC(=O)N(C2CCCC2)C1)c1nc(-c2ccc(S(C)(=O)=O)cc2)cs1 (configuration not stated) | -18.4% | 7.31 µM [falling, partial curve] | –
CCOC(=O)N1CCC(NC(=O)c2cccn3c(=O)c4cc(Br)ccc4nc23)CC1 | 60.5% | – | –
COc1cc(S(=O)(=O)Nc2ccccc2C(=O)N2CCCC2)ccc1NC(C)=O | 42% | – | 8.2 µM [rising, partial curve]
O=C1[C@H](CC[C@H](O)c2ccc(F)cc2)[C@@H](c2ccc(O)cc2)N1c1ccc(F)cc1 | -28% | 29.1 µM [falling, single point] | –
O=C(N/N=C/c1ccc(-c2ccc([N+](=O)[O-])cc2)o1)c1cccnc1 | -12.7% | 29.1 µM [falling, single point] | –
CCOC(=O)C1CCCN(C(=O)c2sc3nc(-c4ccc(F)cc4)cn3c2C)C1 (configuration not stated) | -32% | 20.6 µM [falling, partial curve] | 16.4 µM [falling, partial curve]
Cc1cc(C)nc(-n2ncc3c2CCCC3=O)n1 | -7.64% | – | 0.517 µM [falling, single point]
CCc1ccccc1NC(=O)CN(C)Cc1nc(N)nc(Nc2ccccc2C)n1 | -10.2% | 16.4 µM [rising, single point] | –
Cc1cc(C)cc(N(C(C)C(=O)Nc2c(C)n(C)n(-c3ccccc3)c2=O)S(C)(=O)=O)c1 (configuration not stated) | 7.62% | – | –
CCCCN(C)Cc1c(C)[nH]c2c(Cl)cccc2c1=O | 122% | 20.6 µM [rising, single point] | 20.6 µM [rising, single point]
O=C(N=C1SC2CS(=O)(=O)CC2N1c1ccccc1Cl)C1CCCO1 (configuration not stated) | -11.5% | 29.1 µM [rising, single point] | –
CCOC(=O)c1c(-c2ccccc2)oc2ccc(OCC(N)=O)cc12 | 11.9% | 29.1 µM [falling, single point] | –
COc1ccc(CNC(=O)CN(C(=O)c2csnn2)c2cccc3c2CCCC3)cc1 | 15.3% | – | 6.51 µM [rising, single point]
COC(=O)c1nn(-c2ccc(Oc3ccccc3)cc2)c(=O)cc1O | -3.4% | – | –
CCCCCCS(=O)Cc1ccccc1 (configuration not stated) | -5.96% | – | 0.058 µM [falling, full curve]

SMILES | cell number change | AC50 [1] | AC50 [2]
O=C(NCCCCNC(=O)c1ccc(Br)cc1)c1ccc(Br)cc1 | 4.72% | 32.6 µM [rising, single point] | –
O=C(N1CCc2[nH]c3ccccc3c2C1)C(F)(F)F | -4.17% | 0.58 µM [falling, single point] | –
c1ccc(C2=Nn3c(nnc3-c3n[nH]c4c3CCC4)SC2)cc1 | – | 6.51 µM [falling, single point] | –
CCOC(=O)c1[nH]c2ccccc2c1NC(=O)NC1CCCCC1 | 23% | 2.31 µM [rising, partial curve] | –
CC(C)(C)NC(NC(=O)Cc1ccccc1)C(Cl)(Cl)Cl (configuration not stated) | 0.197% | 5.17 µM [falling, full curve, poor fit] | –
CC1(C)OC(=O)C(=CSc2ccc(C(C)(C)C)cc2)C(=O)O1 | 49.6% | – | 5.17 µM [rising, full curve, poor fit]
Cc1c(C(=O)N/N=C/c2cccnc2)sc(N)c1C#N | – | – | 6.51 µM [rising, single point]
CCCC(=O)Nc1c2c(nn1-c1ccc(C)cc1)CS(=O)(=O)C2 | -3.66% | 0.82 µM [falling, full curve, poor fit] | –
C/C(=C\COc1ccc2ccc(=O)oc2c1)CC[C@@H](O)C(C)(C)O | 10.3% | 18.4 µM [rising, single point] | –
CCNS(=O)(=O)c1ccc(CCC(=O)N2CCN(c3cccc(Cl)c3)CC2)cc1 | 20.9% | 1.03 µM [rising, full curve] | –
Fc1ccc(Nc2nc(N/N=C/c3ccco3)nc(N3CCCCC3)n2)cc1 | 97.5% | 2.06 µM [rising, partial curve, poor fit] | 2.06 µM [rising, partial curve]
Cn1c(=O)c2c(nc(N/N=C3\CCCc4ccccc43)n2Cc2ccc(F)cc2)n(C)c1=O | -50% | 16.4 µM [rising, single point] | 23.1 µM [falling, single point]
O=C(CCNC(=O)c1ccc(Br)cc1)NCc1cccnc1 | – | 0.58 µM [rising, single point] | –
CC1CCc2sc(C(=O)OCC(=O)NCc3ccc(F)cc3)cc2C1 (configuration not stated) | -13.7% | 29.1 µM [falling, single point] | –
O=C(NNC(=O)c1sccc1-n1cccc1)c1ccccc1 | – | 29.1 µM [falling, single point] | –
CCOC(=O)/C(C#N)=C1/C=CNC(=O)N1 | 35.7% | 0.517 µM [rising, full curve, poor fit] | 0.461 µM [rising, full curve]
COc1cccc(C2/C(=C(\O)c3ccc4c(c3)OCCO4)C(=O)C(=O)N2CCCn2ccnc2)c1 (configuration not stated) | 39.9% | – | 0.58 µM [rising, full curve, poor fit]
CCCCC(=O)Nc1nnc(CCOC)s1 | 22.4% | 0.82 µM [falling, partial curve, poor fit] | 0.651 µM [falling, single point]
CC(C)NC(=O)COc1ccc(S(=O)(=O)N2CCCC2)cc1 | -11.9% | – | –

SMILES | cell number change | AC50 [1] | AC50 [2]
COc1ccc(NS(=O)(=O)c2ccc(NC(=O)C3CC3)cc2)cc1 | 4.69% | – | –
Cc1ccc(C)n1-c1cccc(N)c1 | 1.45% | – | –
O=C(CSc1nnc(CNC(=O)c2cccc(C(F)(F)F)c2)o1)NC1CCCC1 | 33.1% | – | 16.4 µM [rising, partial curve, poor fit]
COc1ccc(NS(=O)(=O)c2ccc3c(c2)Cc2ccccc2-3)cn1 | 33.8% | – | 5.17 µM [rising, partial curve]
Cc1cc(C(=O)CN2c3cccc4cccc(c34)S2(=O)=O)c(C)n1C | 18.3% | 0.164 µM [falling, full curve, poor fit] | –
Cc1ccc(C)c(N2CCN(S(=O)(=O)CC34CCC(CC3=O)C4(C)C)CC2)c1 (configuration not stated) | -8.2% | 0.411 µM [rising, full curve, poor fit] | –
COc1cc2c3nnc(-c4ccccc4)c-3cn(Cc3ccccc3F)c2cc1OC | 14.2% | 3.66 µM [falling, single point] | –
CCOc1ccc(C(=O)NC2CCN(C(=S)Nc3ccccc3C)CC2)cc1 | 21.9% | 0.092 µM [falling, full curve, poor fit] | –
Oc1ccc(Br)cc1/C=N/n1cnc2ccccc21 | -43% | 20.6 µM [falling, single point] | 32.6 µM [falling, single point]
O=C(CC1C(=O)Nc2ccccc2N1CC(=O)N1CCCC1)Nc1ccc(Br)cc1 (configuration not stated) | -11.2% | 7.31 µM [rising, partial curve] | –
O=C(NC1CCCCC1)c1nn2c(C(F)(F)F)cc(-c3ccco3)nc2c1Br | -24.9% | 14.6 µM [falling, partial curve] | 0.13 µM [falling, full curve, poor fit]
Cc1c(Br)c(C(=O)N2CCc3ccccc32)nn1C | 51.6% | 0.411 µM [rising, full curve, poor fit] | 11.6 µM [rising, partial curve, poor fit]
CC(=O)Nc1sc(NC(=O)c2ccc(C)cc2)nc1-c1cccs1 | -30.7% | 29.1 µM [falling, single point] | 18.4 µM [falling, single point]
Cc1noc(C)c1CSCC(=O)N1CCN(c2ccc([N+](=O)[O-])cc2)CC1 | 55.7% | 0.103 µM [falling, full curve, poor fit] | 2.31 µM [rising, full curve]
Cc1ccc(S(=O)(=O)N(C)c2ccc(OCC(=O)Nc3cccc(-n4cnnn4)c3C)cc2)cc1 | 25% | 32.6 µM [rising, single point] | –
O=C(COC(=O)CNC(=O)c1cccc([N+](=O)[O-])c1)Nc1nc2ccccc2s1 | 1.38% | 29.1 µM [rising, single point] | –
COc1ccc(CCNC(=O)CSc2nc(-c3ccco3)cc(C(F)(F)F)n2)cc1 | -9.53% | 6.51 µM [rising, single point] | –
C=CCn1c(SCC(=O)Nc2sccc2C#N)nc2sc(C)c(C)c2c1=O | 4.27% | 0.206 µM [rising, full curve] | –
O=CN1CCN(C(=O)CN2C(=O)c3ccccc3C2=O)CC1 | -7.99% | 25.9 µM [falling, single point] | –

Just cell number change, for some of the entries so far:
SMILES	cell number change
CCNS(=O)(=O)c1ccc(CCC(=O)N2CCN(c3cccc(Cl)c3)CC2)cc1	20.9%
Fc1ccc(Nc2nc(N/N=C/c3ccco3)nc(N3CCCCC3)n2)cc1	97.5%
Cn1c(=O)c2c(nc(N/N=C3\CCCc4ccccc43)n2Cc2ccc(F)cc2)n(C)c1=O	-50%

2 entries from above, as labelled records.
Cc1noc(C)c1CSCC(=O)N1CCN(c2ccc([N+](=O)[O-])cc2)CC1
  cell number change: 55.7%; AC50 [1]: 0.103 µM [falling, full curve, poor fit]; AC50 [2]: 2.31 µM [rising, full curve]
Cc1ccc(S(=O)(=O)N(C)c2ccc(OCC(=O)Nc3cccc(-n4cnnn4)c3C)cc2)cc1
  cell number change: 25%; AC50 [1]: 32.6 µM [rising, single point]

Reference: PubChem BioAssay AID2685 (National Center for Advancing Translational Sciences (NCATS), 2010)
